Earlier results in paper PMC3481835 (Clinical pharmacology and therapeutics, 2011).

Tested on: CYP3A4
Conditions: range printed for the three inhibitors; cited from earlier work

For `CCCCc1oc2ccccc2c1C(=O)c1cc(I)c(OCCN(CC)CC)c(I)c1` [amiodarone], the “decrease in urinary 6β-hydroxycortisol to cortisol-ratio” value is listed as 15-65%.
